According to the supplement of paper PMC4604168 (melanoma cell lines):
The list shows a part of the results. Many values rest on one well or one pass, so single values are uncertain.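 The apoptosis fraction was the count of cleaved-PARP antibody-stained nuclei relative to all DNA-stained nuclei, imaged in 1,536-well plates. Screening doses were set so most cells survived, and baseline and induced cleaved-PARP levels vary greatly across cell lines.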

Experiments:
Test in all cases: cleaved PARP positive nuclei fraction relative to DMSO control; melanoma cells; higher = more apoptosis
Settings in all cases: library dose: low library concentration; 72 h
WM115 = tested on: WM115
WM1716 = tested on: WM1716
WM1745 = tested on: WM1745
WM3526 = tested on: WM3526
WM3619 = tested on: WM3619
WM451Lu = tested on: WM451Lu

| SMILES | cleaved PARP positive nuclei fraction (WM115) [%] | cleaved PARP positive nuclei fraction (WM1716) [%] | cleaved PARP positive nuclei fraction (WM1745) [%] | cleaved PARP positive nuclei fraction (WM3526) [%] | cleaved PARP positive nuclei fraction (WM3619) [%] | cleaved PARP positive nuclei fraction (WM451Lu) [%] |
| --- | --- | --- | --- | --- | --- | --- |
| O=C(Nc1cc(C(F)(F)F)cc(C(F)(F)F)c1)c1cc(Cl)ccc1O + CCN(CC)CCCCNc1ncc2cc(-c3cc(OC)cc(OC)c3)c(NC(=O)NC(C)(C)C)nc2n1 [PD173074] (first compound 0.016 µM, partner dose 0.1 µM) | 43.2 | 44.1 | 80.4 | 65.6 | 76.6 | 103 |
| N#CC[C@H](C1CCCC1)n1cc(-c2ncnc3[nH]ccc23)cn1 [ruxolitinib] + Nc1nc(F)nc2c1ncn2[C@@H]1O[C@H](CO)[C@@H](O)[C@@H]1O [fludarabine] (first compound 1 µM, partner dose 0.2 µM) | 136 | 68.1 | 85.1 | 437 | 101 | 50.5 |
| N#CC[C@H](C1CCCC1)n1cc(-c2ncnc3[nH]ccc23)cn1 [ruxolitinib] + Cc1cc(Nc2cc(N3CCN(C)CC3)nc(/C=C/c3ccccc3)n2)n[nH]1 [ENMD2076] (first compound 1 µM, partner dose 0.04 µM) | 42.6 | 269 | 105 | 43.3 | 95.3 | 82.5 |
| CC[C@]1(O)C[C@H]2CN(CCc3c([nH]c4ccccc34)[C@@](C(=O)OC)(c3cc4c(cc3OC)N(C=O)[C@H]3[C@@](O)(C(=O)OC)[C@H](OC(C)=O)[C@]5(CC)C=CCN6CC[C@]43[C@@H]65)C2)C1 [vincristine] + Cc1ccc(Nc2nccc(N(C)c3ccc4c(C)n(C)nc4c3)n2)cc1S(N)(=O)=O [Pazopanib] (first compound 0.0001 µM, partner dose 0.4 µM) | 788 | 474 | 107 | 131 | 187 | 101 |
| Cc1cn(-c2cc(NC(=O)c3ccc(C)c(Nc4nccc(-c5cccnc5)n4)c3)cc(C(F)(F)F)c2)cn1 [nilotinib] + COc1cc(N2CCC(N3CCN(C)CC3)CC2)ccc1Nc1ncc(Cl)c(Nc2ccccc2S(=O)(=O)C(C)C)n1 [NVP-TAE684] (first compound 0.2 µM, partner dose 0.08 µM) | 150 | 99.2 | 121 | 91.3 | 159 | 51.7 |
| O=C(Nc1cc(C(F)(F)F)cc(C(F)(F)F)c1)c1cc(Cl)ccc1O + Nc1nc(F)nc2c1ncn2[C@@H]1O[C@H](CO)[C@@H](O)[C@@H]1O [fludarabine] (first compound 0.016 µM, partner dose 0.2 µM) | 104 | 75 | 74.9 | 395 | 104 | 470 |
| CCCCCCCCCCCCCCCCCCOP(=O)([O-])OC1CC[N+](C)(C)CC1 [Perifosine] + COc1ccc(C2=N[C@@H](c3ccc(Cl)cc3)[C@@H](c3ccc(Cl)cc3)N2C(=O)N2CCNC(=O)C2)c(OC(C)C)c1 [Nutlin-3] (first compound 0.4 µM, partner dose 0.1 µM) | 107 | 62.2 | 81.4 | 150 | 157 | 55.8 |
| O=c1[nH]nc(Sc2ncc([N+](=O)[O-])s2)n1-c1ccc2c(c1)OCCO2 + CC(C)(C)c1cnc(CSc2cnc(NC(=O)C3CCNCC3)s2)o1 [SNS-032] (first compound 0.2 µM, partner dose 0.01 µM) | 45.2 | 73.9 | 110 | 193 | 79.7 | 99.4 |
| CCCCCCCCCCCCCCCCCCOP(=O)([O-])OC1CC[N+](C)(C)CC1 [Perifosine] + CC1(C)NC(=O)N(c2ccc([N+](=O)[O-])c(C(F)(F)F)c2)C1=O [nilutamide] (first compound 0.4 µM, partner dose 1 µM) | 170 | 321 | 66 | 80.1 | 111 | 145 |
| N#CC[C@H](C1CCCC1)n1cc(-c2ncnc3[nH]ccc23)cn1 [ruxolitinib] + Oc1cc(-c2nc(-c3ccccc3)[nH]c2-c2ccncc2)ccc1Cl [L779450] (first compound 1 µM, partner dose 0.2 µM) | 226 | 44.6 | 88.9 | 78.5 | 88 | 38.7 |
| Cc1ccc(Nc2nccc(N(C)c3ccc4c(C)n(C)nc4c3)n2)cc1S(N)(=O)=O [Pazopanib] + COC(=O)c1sccc1S(=O)(=O)Nc1ccc(Nc2ccccc2)cc1OC [GSK0660] (first compound 0.4 µM, partner dose 1 µM) | 63.4 | 118 | 103 | 246 | 114 | 42.6 |
| Cc1ccc(Nc2nccc(N(C)c3ccc4c(C)n(C)nc4c3)n2)cc1S(N)(=O)=O [Pazopanib] + CC(C)CCN1c2nc(Nc3cc(F)c(O)c(F)c3)ncc2N(C)C(=O)C1C [BID1870] (first compound 0.4 µM, partner dose 0.2 µM) | 50.9 | 117 | 94.3 | 152 | 108 | 37.2 |
| Cc1ccc(Nc2nccc(N(C)c3ccc4c(C)n(C)nc4c3)n2)cc1S(N)(=O)=O [Pazopanib] + CS(=O)(=O)CCNCc1ccc(-c2ccc3ncnc(Nc4ccc(OCc5cccc(F)c5)c(Cl)c4)c3c2)o1 [lapatinib] (first compound 0.4 µM, partner dose 0.8 µM) | 79.6 | 148 | 199 | 84.6 | 88.6 | 96.9 |
| Cc1cc(Nc2cc(N3CCN(C)CC3)nc(Sc3ccc(NC(=O)C4CC4)cc3)n2)n[nH]1 [Tozasertib] + CC(C)CCN1c2nc(Nc3cc(F)c(O)c(F)c3)ncc2N(C)C(=O)C1C [BID1870] (first compound 0.006 µM, partner dose 0.2 µM) | 160 | 269 | 98.3 | 110 | 87.1 | 71.6 |
| CCCCCCCCCCCCCCCCCCOP(=O)([O-])OC1CC[N+](C)(C)CC1 [Perifosine] + Cn1cncc1[C@@](N)(c1ccc(Cl)cc1)c1ccc2c(c1)c(-c1cccc(Cl)c1)cc(=O)n2C [tipifarnib] (first compound 0.4 µM, partner dose 0.01 µM) | 266 | 249 | 2040 | 78.4 | 241 | 156 |
| CCCCCCCCCCCCCCCCCCOP(=O)([O-])OC1CC[N+](C)(C)CC1 [Perifosine] + CCN(CC)CCCCNc1ncc2cc(-c3cc(OC)cc(OC)c3)c(NC(=O)NC(C)(C)C)nc2n1 [PD173074] (first compound 0.4 µM, partner dose 0.1 µM) | 196 | 169 | 89.5 | 76.7 | 114 | 35.2 |
| Cc1cc(Nc2cc(N3CCN(C)CC3)nc(Sc3ccc(NC(=O)C4CC4)cc3)n2)n[nH]1 [Tozasertib] + COCC[n+]1c2c(n(Cc3cnccn3)c1C)C(=O)c1ccccc1C2=O [YM155] (first compound 0.006 µM, partner dose 0.0004 µM) | 155 | 80.7 | 101 | 36.7 | 160 | 103 |
| CCCCCCCCCCCCCCCCCCOP(=O)([O-])OC1CC[N+](C)(C)CC1 [Perifosine] + O=C(Nc1ccccc1)c1cc([N+](=O)[O-])ccc1Cl [GW9662] (first compound 0.4 µM, partner dose 2 µM) | 81.8 | 279 | 93.7 | 50.8 | 107 | 72.4 |
| O=C(/C=C/c1cccnc1)NCCCCC1CCN(C(=O)c2ccccc2)CC1 + COC(=O)c1sccc1S(=O)(=O)Nc1ccc(Nc2ccccc2)cc1OC [GSK0660] (first compound 0.01 µM, partner dose 1 µM) | 302 | 54.4 | 80.8 | 56.8 | 111 | 71.1 |
| COc1cc([C@@H]2c3cc4c(cc3[C@@H](O[C@@H]3O[C@@H]5CO[C@@H](C)O[C@H]5[C@H](O)[C@H]3O)[C@H]3COC(=O)[C@H]23)OCO4)cc(OC)c1O [etoposide] + OCCn1cc(-c2cnc3nnn(Cc4ccc5ncccc5c4)c3n2)cn1 [PF04217903] (first compound 0.02 µM, partner dose 1 µM) | 102 | 106 | 86.3 | 44.8 | 110 | 29.5 |
| O=c1[nH]nc(Sc2ncc([N+](=O)[O-])s2)n1-c1ccc2c(c1)OCCO2 + COc1ccc(-c2ccc3c(N4CCOCC4)nc(N4C[C@@H](C)O[C@@H](C)C4)nc3n2)cc1CO [KU0063794] (first compound 0.2 µM, partner dose 0.02 µM) | 22.3 | 81.1 | 83.4 | 67 | 93.5 | 69.5 |
| Cc1ccc(Nc2nccc(N(C)c3ccc4c(C)n(C)nc4c3)n2)cc1S(N)(=O)=O [Pazopanib] + CC(=O)O[C@@]12CO[C@@H]1C[C@H](O)[C@@]1(C)C(=O)[C@H](O)C3=C(C)[C@@H](OC(=O)[C@H](O)[C@@H](NC(=O)OC(C)(C)C)c4ccccc4)C[C@@](O)([C@@H](OC(=O)c4ccccc4)[C@H]21)C3(C)C [Docetaxel] (first compound 0.4 µM, partner dose 0.0001 µM) | 259 | 1150 | 140 | 87.8 | 108 | 126 |
| Cc1cc(Nc2cc(N3CCN(C)CC3)nc(Sc3ccc(NC(=O)C4CC4)cc3)n2)n[nH]1 [Tozasertib] + C=CCNC1=C2C[C@@H](C)C[C@H](OC)[C@H](O)[C@@H](C)/C=C(\C)[C@H](OC(N)=O)[C@@H](OC)/C=C\C=C(/C)C(=O)NC(=CC1=O)C2=O [Tanespimycin] (first compound 0.006 µM, partner dose 0.002 µM) | 51.8 | 53.3 | 101 | 31.5 | 124 | 65.6 |
| O=C(/C=C/c1cccnc1)NCCCCC1CCN(C(=O)c2ccccc2)CC1 + N#Cc1c(O)c2c(-c3ccc(-c4ccccc4O)cc3)csc2[nH]c1=O [A769662] (first compound 0.01 µM, partner dose 2 µM) | 198 | 152 | 158 | 192 | 108 | 191 |
| Cc1cn(-c2cc(NC(=O)c3ccc(C)c(Nc4nccc(-c5cccnc5)n4)c3)cc(C(F)(F)F)c2)cn1 [nilotinib] + Cc1cc([N+](=O)[O-])ccc1NS(=O)(=O)c1cc(Cl)ccc1Cl [FH535] (first compound 0.2 µM, partner dose 1 µM) | 42.9 | 29.3 | 88 | 174 | 89.3 | 34.1 |
| O=c1[nH]nc(Sc2ncc([N+](=O)[O-])s2)n1-c1ccc2c(c1)OCCO2 + COC(=O)c1sccc1S(=O)(=O)Nc1ccc(Nc2ccccc2)cc1OC [GSK0660] (first compound 0.2 µM, partner dose 1 µM) | 181 | 103 | 79.6 | 38.8 | 134 | 104 |
| Cc1cn(-c2cc(NC(=O)c3ccc(C)c(Nc4nccc(-c5cccnc5)n4)c3)cc(C(F)(F)F)c2)cn1 [nilotinib] + COc1ccc2c(c1)CCC1C2CCC2(C)C(NCCCCCCN3C(=O)C=CC3=O)CCC12 [U73122] (first compound 0.2 µM, partner dose 0.4 µM) | 54.7 | 166 | 113 | 131 | 76.3 | 66 |
| CC[C@]1(O)C[C@H]2CN(CCc3c([nH]c4ccccc34)[C@@](C(=O)OC)(c3cc4c(cc3OC)N(C=O)[C@H]3[C@@](O)(C(=O)OC)[C@H](OC(C)=O)[C@]5(CC)C=CCN6CC[C@]43[C@@H]65)C2)C1 [vincristine] + O=C(O)C(=O)Nc1sc2c(c1C(=O)O)CCNC2 [TCS401] (first compound 0.0001 µM, partner dose 1.66667 µM) | 776 | 440 | 135 | 108 | 166 | 543 |
| COc1cc([C@@H]2c3cc4c(cc3[C@@H](O[C@@H]3O[C@@H]5CO[C@@H](C)O[C@H]5[C@H](O)[C@H]3O)[C@H]3COC(=O)[C@H]23)OCO4)cc(OC)c1O [etoposide] + O=c1[nH]nc(Sc2ncc([N+](=O)[O-])s2)n1-c1ccc2c(c1)OCCO2 [BI78D3] (first compound 0.02 µM, partner dose 0.2 µM) | 185 | 99.5 | 109 | 89.7 | 106 | 253 |

Individual results from the list.
Value of O=C(/C=C/c1cccnc1)NCCCCC1CCN(C(=O)c2ccccc2)CC1 + N#Cc1c(O)c2c(-c3ccc(-c4ccccc4O)cc3)csc2[nH]c1=O [A769662] (first compound 0.01 µM, partner dose 2 µM) under cleaved PARP positive nuclei fraction (WM1745) [%]: 158
Value of CCCCCCCCCCCCCCCCCCOP(=O)([O-])OC1CC[N+](C)(C)CC1 [Perifosine] + CC1(C)NC(=O)N(c2ccc([N+](=O)[O-])c(C(F)(F)F)c2)C1=O [nilutamide] (first compound 0.4 µM, partner dose 1 µM) under cleaved PARP positive nuclei fraction (WM115) [%]: 170
